PubChem BioAssay AID743121, NCATS, 2013
Shown is a random part of about 26,000 reagents. In the full data, 167 (0.63%) were called active. 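Calls are per gene from RSA p-values that are not deposited; an individual active-marked siRNA can sensitise only weakly.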 Unmarked entries are inactive. The numbers tell different reagents against one gene apart. Not all columns of the deposit are shown.

- Purpose: 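Partners whose loss is lethal together with topoisomerase I blockade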 (primary screen)
- Cell system: MDA-MB-231 cells, a human breast cancer line
- Reagent: single siRNA against human genes, 20 nM siRNA (0.8 pmol per well)
- Duration: 120 h (drug added 48 h after transfection, read 72 h later)
- Conditions: camptothecin 20 nM (about EC30) for 72 h; vehicle 0.1% DMSO in parallel plates
- Measured: 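Cell viability by ATP luminescence (CellTiter-Glo) as % of non-targeting siRNA wells, and the log2 ratio of viability without drug over viability with camptothecin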
- Direction: log2 vehicle/camptothecin viability: higher = stronger sensitisation to camptothecin
- Active means: 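Each gene scored by redundant siRNA activity (RSA) over its individual siRNA ratios; a gene is called active at p < 0.001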

| target | siRNA no. | log2 vehicle/camptothecin viability |
| --- | --- | --- |
| PDCD6 | 1 | -0.122 |
| PDCD6 | 2 | -0.682 |
| PDCD6 | 3 | -0.0826 |
| PDCD6 | 4 | 0.457 |
| RASD1 | 1 | -0.379 |
| RASD1 | 2 | 1.52 |
| RASD1 | 3 | 0.0541 |
| RASD1 | 4 | -0.664 |
| RACGAP1 | 1 | -0.0404 |
| RACGAP1 | 2 | -0.134 |
| RACGAP1 | 3 | 0.211 |
| RACGAP1 | 4 | -0.578 |
| DEFA1 | 1 | -0.109 |
| DEFA1 | 2 | 0.423 |
| DEFA1 | 3 | -0.254 |
| DEFA1 | 4 | 0.0234 |
| FADD | 1 | -0.131 |
| FADD | 2 | -0.206 |
| FADD | 3 | 0.012 |
| GDF5 | 1 | -0.276 |
| GDF5 | 2 | -0.185 |
| GDF5 | 3 | -0.199 |
| GDF5 | 4 | -0.447 |
| NEXN | 1 | -0.2 |
| NEXN | 2 | -0.276 |
| NEXN | 3 | -0.308 |
| NEXN | 4 | 0.068 |
| NR5A2 | 1 | -0.0547 |
| NR5A2 | 2 | -0.134 |
| NR5A2 | 3 | -0.0737 |
| NR5A2 | 4 | -0.15 |
| FAF1 | 1 | 0.0256 |
| FAF1 | 2 | -0.401 |
| FAF1 | 3 | -0.255 |
| FAF1 | 4 | -0.173 |
| AJAP1 | 1 | 0.595 |
| AJAP1 | 2 | -0.227 |
| AJAP1 | 3 | -0.0904 |
| AJAP1 | 4 | -0.158 |
| AJAP1 | 5 | -0.0879 |
| AJAP1 | 6 | -0.336 |
| AJAP1 | 7 | -0.225 |
| AJAP1 | 8 | -0.393 |
| TLR1 | 1 | -0.166 |
| TLR1 | 2 | 0.369 |
| TLR1 | 3 | -0.416 |

Reprinted from above (4 entries):
| target | siRNA no. | log2 vehicle/camptothecin viability |
| --- | --- | --- |
| NEXN | 2 | -0.276 |
| NEXN | 3 | -0.308 |
| NEXN | 4 | 0.068 |
| NR5A2 | 1 | -0.0547 |
